The values below come from article PMC10897315.

For the assay, the target named is T1, Atg13^wt-GFP (S. cerevisiae) (UniProt Q06628).
T1 sequence: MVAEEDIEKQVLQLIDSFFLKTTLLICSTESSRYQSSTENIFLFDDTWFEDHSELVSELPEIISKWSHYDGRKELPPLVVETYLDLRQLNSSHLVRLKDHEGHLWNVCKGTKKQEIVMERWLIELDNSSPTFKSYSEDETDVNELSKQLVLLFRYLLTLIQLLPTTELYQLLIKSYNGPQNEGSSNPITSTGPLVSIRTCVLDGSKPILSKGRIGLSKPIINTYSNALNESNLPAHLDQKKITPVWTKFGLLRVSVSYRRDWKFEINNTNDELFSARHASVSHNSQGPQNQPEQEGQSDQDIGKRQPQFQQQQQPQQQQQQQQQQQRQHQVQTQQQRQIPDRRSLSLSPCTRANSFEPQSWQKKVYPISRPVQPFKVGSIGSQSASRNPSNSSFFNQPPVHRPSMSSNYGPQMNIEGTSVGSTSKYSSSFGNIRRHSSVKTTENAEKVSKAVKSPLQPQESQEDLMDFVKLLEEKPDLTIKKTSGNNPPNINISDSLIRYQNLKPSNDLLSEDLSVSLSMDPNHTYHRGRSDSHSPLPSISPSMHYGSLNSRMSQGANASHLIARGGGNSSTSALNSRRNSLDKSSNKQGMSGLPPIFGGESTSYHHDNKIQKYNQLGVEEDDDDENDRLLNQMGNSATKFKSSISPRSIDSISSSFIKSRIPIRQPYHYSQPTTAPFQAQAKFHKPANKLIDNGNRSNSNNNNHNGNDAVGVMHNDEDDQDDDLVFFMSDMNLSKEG
In words: co-IP; GFP-tagged Atg13 precipitated on GFP-Trap Dynabeads from cleared extract of freezer-milled yeast in IP buffer (1x PBS, 10% glycerol, 0.5% Tween-20, phosphatase and protease inhibitors), 1 h at 4 °C; cells starved for 1 h; anti-GFP and anti-Atg17 western blot. In general terms: A western blot detects proteins with antibodies after separation by electrophoresis.

Results are given in words; binding and its absence hold for the method and conditions named. In cells and extracts the contact can be indirect. Some entries that bind do so weakly or less than the wild type. Tags and fused reporters may be left off the sequences shown.

B1: Atg17 (protein, UniProt Q06410 1-417)
chain: MNEADVTKFVNNARKTLTDAQLLCSSANLRIVDIKKKLSSWQLSISKLNFLIVGLRQQGKFLYTILKEGIGTKLIQKQWNQAVLVVLVDEMKYWQYEITSKVQRLDGIVNELSISEKDDTDPSKLGDYISRDNVNLLNDKLKEVPVIERQIENIKLQYENMVRKVNKELIDTKLTDVTQKFQSKFGIDNLMETNVAEQFSRELTDLEKDLAEIMNSLTQHFDKTLLLQDKKIDNDEREELFKVVQGDDKELYNIFKTLHEVIDDVDKTILNLGQFLQAKIKEKTELHSEVSEIINDFNRNLEYLLIFKDISNLIDSFKNSCTQDIQTTKELCEFYDNFEESYGNLVLEAKRRKDVANRMKTILKDCEKQLQNLDAQDQEERQNFIAENGTYLPETIWPGKIDDFSSLYTLNYNVKNP
Consider B1, for which the binding result was “binds”.
